Data reported in article PMC8442857 (Science Advances, 2021).

Molecular target: ACC1 (acetyl-coenzyme A carboxylase 1) (Homo sapiens, UniProt Q13085)
Assay: biochemical

Clc1ccc(CSC(Cn2ccnc2)c2ccc(Cl)cc2Cl)cc1 (stereo not shown) [SN, sulconazole]
IC50: ~20 µM
